Laboratory results published in PubChem BioAssay AID504467 (National Center for Advancing Translational Sciences (NCATS), 2011).
Among all 330,000 compounds or so, about 7,700 (2.3%) were called active. The shares of active, inactive and inconclusive entries below differ from those in the screen. Calls come from the whole dose curve; as a rule, active = well fitted inhibition curve with a large enough effect; inconclusive = small, poorly fitted or top-dose-only effect, or effect the other way; inactive = flat fitted curve, though single readings scatter. Potencies beside an inconclusive call are fits to weak or partial responses and may not hold up.

assay: qHTS screen for small molecules that inhibit ELG1-dependent DNA repair in human embryonic kidney (HEK293T) cells expressing luciferase-tagged ELG1; settings: HEK293T ELG1-luciferase reporter, luminescence, 16 h, DNA damage induced by 5-fluorouridine; activity change, negative = inhibition: at 46.1 µM (top of the series); note: nearly all actives have a fitted effect of over 55% in size
Procedure, shortened: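 5-Fluorouridine DNA damage + compound/DMSO, 2,000 cells/well, 16 h, 37 °C/5% CO2. ONE-Glo, 30 min RT, luminescence. Readout = decrease in reporter signal.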
% is set by controls: 0 for no effect and ±100 for the full control effect; potency is the fitted concentration of half-maximal effect.

Row | Structure (SMILES) | Potency | activity change, negative = inhibition
1 | Cc1nnc(NC(=O)C2CC(=O)N(c3ccccc3)C2)s1 (configuration not stated) | inconclusive: 14.6 µM [activator, partial curve] | 
2 | COc1ccc(C(=O)Nc2ccccc2C(=O)Nc2cc(C)ccn2)cc1 | inconclusive: 20 µM [activator, partial curve, poor fit] | 
3 | O=C(CSc1ccc(Cl)cc1)Nc1cccc(-c2nc3ncccc3o2)c1 | inconclusive: 29.1 µM [inhibitor, single point] | 
4 | CCOC(=O)C1CCN(S(=O)(=O)c2ccc(CC)cc2)CC1 |  | inactive: -1.47%
5 | CCCc1nc2oc3c(NCc4ccccn4)ncnc3c2c2c1COC(C)(C)C2 | inconclusive: 1.3 µM [inhibitor, partial curve, poor fit] | 
6 | CC(Oc1ccccc1)C(=O)NNC(=O)c1cccs1 (configuration not stated) |  | inactive: -2.1%
7 | CCN(Cc1cnn(C)c1)C(=O)c1ccc(OC2CCN(S(=O)(=O)N(C)C)CC2)cc1 | inconclusive: 16.4 µM [inhibitor, partial curve] | 
8 | COC(=O)C1=C(C(=O)OC)C(c2cc(Br)ccc2O)c2sc(=O)[nH]c2S1 (configuration not stated) |  | inactive: 7.43%
9 | CCCC(=O)N(CCN1CCOCC1)c1nc2c(C)cccc2s1 |  | inactive: -25.9%
10 | COc1cc(C2/C(=C(\O)c3ccc4c(c3)OCCO4)C(=O)C(=O)N2Cc2ccco2)cc(OC)c1OC (configuration not stated) |  | inactive: 9.02%
11 | N#Cc1ccc(C(=O)NC(=S)N2CCN(C=O)CC2)cc1 |  | inactive: 12%
12 | C/C(=N/NC(=O)c1ccccn1)c1ccncc1 | inconclusive: 14.6 µM [activator, partial curve] | 
13 | COc1cccc(CCC(=O)Nc2cccc(S(=O)(=O)N3CCCC3)c2)c1OC | inconclusive: 29.1 µM [inhibitor, single point] | 
14 | CC(CCOS(N)(=O)=O)c1ccccc1 (configuration not stated) |  | inactive: -0.703%
15 | C/C(Cc1ccccc1)=N\NC(=O)CNC(=O)c1ccc(F)cc1 | inconclusive: 18.3 µM [activator, partial curve, poor fit] | 
16 | O=C(Nc1ccc2sccc2c1)c1cccc(N2C(=O)CCC2=O)c1 | inconclusive: 13 µM [activator, partial curve] | 
17 | Cn1c(NNC(=O)c2ccccc2F)cc(=O)n(C)c1=O |  | inactive: 0%
18 | CC(=O)c1cccc(NC(=O)C2CCN(C(=O)c3ccccc3Cl)CC2)c1 |  | inactive: -26%
19 | CCc1ccccc1NS(=O)(=O)c1ccc2[nH]cc(C(=O)NC3CCCC3)c(=O)c2c1 | inconclusive: 14.6 µM [inhibitor, partial curve, poor fit] | 
20 | C=CCn1c(-c2ccc(S(=O)(=O)N3CCOCC3)cc2)csc1=Nc1ccccc1 |  | inactive: 0%
21 | CCc1ccc(Nc2ncc3c(n2)CC(C)CC3=O)cc1 (configuration not stated) | inconclusive: 5.17 µM [activator, partial curve] | 
22 | CCOc1ccc2nc(SCC(=O)NC(=O)C(C)C)sc2c1 | inconclusive: 29.1 µM [activator, single point] | 
23 | CCN(CC)c1ccc(NC2=C(Cl)C(=O)c3ccccc3C2=O)cc1 | inconclusive: 1.46 µM [activator, partial curve] | 
24 | O=C(c1cc(Cl)ccc1F)N1CCCC(Nc2ccc3c(c2)OCCO3)C1 (configuration not stated) |  | inactive: -1.98%

Row | Structure (SMILES) | Potency | activity change, negative = inhibition
25 | COC(=O)COc1cc(OCC(=O)OC)c2c(-c3ccccc3)cc(=O)oc2c1 |  | inactive: 4.65%
26 | C/C(=N\NC(=S)Nc1cccc(C)c1)c1ccco1 | inconclusive: 20.6 µM [inhibitor, single point] | 
27 | Cc1cc(C)nc(SCC(=O)NCc2ccco2)n1 |  | inactive: 3.75%
28 | CCOC(=O)C1CCN(C(=O)/C=C/c2ccc(OC)cc2)CC1 | inconclusive: 2.91 µM [activator, full curve] | 
29 | CCOC(=O)c1ccc(NC(=S)N(CCCN2CCCCC2)Cc2ccco2)cc1 |  | inactive: 0.135%
30 | Cc1sc2ncn3ncnc3c2c1C | active: 9.2 µM | 
31 | CC(C)(CNS(=O)(=O)c1ccc2ccccc2c1)N1CCOCC1 |  | inactive: 3.05%
32 | CCOc1ccccc1C(=O)Nc1ccc(-n2nncc2C(C)(C)C)cc1 | inconclusive: 29.1 µM [inhibitor, single point] | 
33 | CC12CCC(=O)N1C(C(=O)Nc1nnc(SCc3ccccc3F)s1)CS2 (configuration not stated) | inconclusive: 18.3 µM [activator, single point] | 
34 | CCOC(=O)N1CCN(c2c(N3CCN(c4ccccc4F)CC3)c(=O)c2=O)CC1 | inconclusive: 29.1 µM [inhibitor, single point] | 
35 | Cc1ccc(SCC(=O)O/N=C(\N)c2cccc([N+](=O)[O-])c2)cc1 |  | inactive: -9.03%
36 | Cc1ccc(NC(=O)CCCc2ccccc2)nc1 | inconclusive: 4.61 µM [activator, single point] | 
37 | O=C(Cn1cc(C(F)(F)F)cc(Cl)c1=O)NCCc1ccccc1 | inconclusive: 20.6 µM [activator, partial curve, poor fit] | 
38 | COc1cccc(C(C(=O)NC2CCCCC2)N(C(=O)Cc2cccs2)c2ccc(-n3cnnn3)c(OC)c2)c1 (configuration not stated) |  | inactive: -5.97%
39 | O=C(NNc1c2ccccc2nc2ccccc12)c1ccc(Cl)cc1 |  | inactive: 0.403%
40 | Cc1c(Cc2ccccc2)c(=O)oc2cc(OCC(=O)N[C@@H](Cc3ccccc3)C(=O)O)ccc12 |  | inactive: -23.8%
41 | Cc1cc(C)c(O)c(-c2n[nH]c3c2C(c2cccc(O)c2)N(Cc2ccco2)C3=O)c1 (configuration not stated) | inconclusive: 6.51 µM [inhibitor, partial curve, poor fit] | 
42 | CCC1(C)Cc2c(sc3nnn(CC(=O)Nc4ccc(C)cc4)c(=O)c23)CO1 (configuration not stated) | inconclusive: 29.1 µM [inhibitor, single point] | 
43 | O=C(Nc1cccnc1)c1ccc([N+](=O)[O-])o1 | inconclusive: 29.1 µM [inhibitor, single point] | 
44 | COc1ccc(NC(=O)COc2cccc3c2OC(C)(C)C3)cc1OC | inconclusive: 11.2 µM [inhibitor, partial curve] | 
45 | COc1cccc(/C=C2\Oc3cc(OC(=O)N4CCOCC4)ccc3C2=O)c1 |  | inactive: 0%
46 | Cc1ccc(S(=O)(=O)N(C)C)cc1NC(=O)CSc1ncc(C(F)(F)F)cc1Cl | inconclusive: 20.6 µM [inhibitor, single point] | 
47 | CC(NS(=O)(=O)c1cn(C)c(=O)n(C)c1=O)c1ccccc1 (configuration not stated) |  | inactive: -2.4%
48 | O=C(CCCCCn1c(=O)[nH]c2ccsc2c1=O)NCc1ccc(F)cc1 | inconclusive: 29.1 µM [inhibitor, partial curve, poor fit] | 

Some of these compounds in order of count of non-hydrogen atoms, ascending:
Row | Structure (SMILES) | Potency | activity change, negative = inhibition
43 | O=C(Nc1cccnc1)c1ccc([N+](=O)[O-])o1 | inconclusive: 29.1 µM [inhibitor, single point] | 
48 | O=C(CCCCCn1c(=O)[nH]c2ccsc2c1=O)NCc1ccc(F)cc1 | inconclusive: 29.1 µM [inhibitor, partial curve, poor fit] | 
34 | CCOC(=O)N1CCN(c2c(N3CCN(c4ccccc4F)CC3)c(=O)c2=O)CC1 | inconclusive: 29.1 µM [inhibitor, single point] | 

The list goes on:

Row | Structure (SMILES) | Potency | activity change, negative = inhibition
49 | Cc1ccc2c(c1)nc(NCCO)n2C | inconclusive: 25.9 µM [activator, partial curve, poor fit] | 
50 | Cc1cc(=O)n(-c2ccc3ccccc3n2)[nH]1 | inconclusive: 16.4 µM [activator, single point] | 
51 | CCOc1ccc(S(=O)(=O)Nc2cccc(C(=O)NCC(c3ccccc3)N(C)C)c2)cc1 (configuration not stated) |  | inactive: 7.31%
52 | CC(=O)Nc1ccc(S(=O)(=O)N2CCC(N3CCCCC3)CC2)cc1 |  | inactive: 3.17%
53 | O=C(COC(=O)CCc1nc2ccccc2c(=O)[nH]1)Nc1ccc(OC(F)(F)F)cc1 |  | inactive: -5.29%
54 | C/C(N)=C(/C#N)C(=O)COC(=O)c1cc(-c2cccc(Br)c2)nc2ccccc12 | active: 11.6 µM | 
55 | CCC(=O)c1ccc2ncccc2c1 |  | inactive: 14.4%
56 | COC(=O)c1ccccc1NC(=O)CSc1ccccn1 | inconclusive: 23.1 µM [activator, partial curve, poor fit] | 
57 | COc1ccc(C2/C=C\CN(C(=O)Nc3ccc(C(F)(F)F)cc3)CC(=O)N2Cc2ccc(F)cc2)cc1 (configuration not stated) |  | inactive: -29.4%
58 | COc1cccc(CNS(=O)(=O)c2c(C)nc3sccn3c2=O)c1 |  | inactive: 10.9%
59 | CC/C(=N\NC(=O)c1ccncc1)C12CC3CC(CC(C3)C1)C2 |  | inactive: 4.97%
60 | O=C(Nc1ccccc1)C1=C[C@H](c2coc3ccccc3c2=O)C[C@H](OCc2ccc(CO)cc2)O1 | inconclusive: 29.1 µM [inhibitor, single point] | 
61 | O=C(NCc1ccccc1)c1c[nH]c2cc3c(cc2c1=O)OCCO3 | inconclusive: 4.61 µM [activator, partial curve] | 
62 | O=C(NCCN1CCOCC1)c1ccccc1N1C(=O)[C@@H]2Cc3c([nH]c4ccccc34)C(c3ccccc3)N2C1=O (some centres not stated) | inconclusive: 4.61 µM [inhibitor, single point] | 
63 | COC(=O)c1cccc(Nc2ncnc3ccc(C)cc23)c1 | inconclusive: 25.9 µM [inhibitor, partial curve, poor fit] | 
64 | O=S(=O)(Nc1nc2ccccc2nc1N1CCc2ccccc2C1)c1ccc(Br)cc1 | inconclusive: 3.66 µM [activator, partial curve, poor fit] | 
65 | CCOC(=O)c1[nH]c2ccc(F)cc2c1NC(=O)C(C)N1CCc2cc(OC)c(OC)cc2C1 (configuration not stated) | active: 4.11 µM | 
66 | COc1cccc(CC2(CO)CCN(C(=O)NC3CCCCC3)CC2)c1 | inconclusive: 20.6 µM [inhibitor, single point] | 
67 | O=[N+]([O-])c1ccc(NC(=S)NCc2ccncc2)cc1 | inconclusive: 16.4 µM [inhibitor, partial curve] | 
68 | O=C(COc1cccnc1[N+](=O)[O-])Nc1ncc(Cl)cc1Cl | inconclusive: 14.6 µM [activator, partial curve] | 
69 | O=C(/C=C/NNC(=O)c1ccccc1)c1ccccc1 | inconclusive: 25.9 µM [activator, single point] | 
70 | CN(CC(=O)Nc1ccccc1Sc1ccccc1)Cc1nc2ccccc2c(=O)[nH]1 | inconclusive: 14.6 µM [inhibitor, single point] | 
71 | Cc1nnc2c(NC3CCCCC3)nc3ccccc3n12 | inconclusive: 25.9 µM [activator, single point] | 
72 | Cn1c(SCc2ccccc2[N+](=O)[O-])nnc1-c1cccnc1 | inconclusive: 20.6 µM [activator, partial curve, poor fit] | 
